The list shows a part of the results, in another mix than the full data. This is a noisy data set.
The targets below were run with COC(=O)/C=C/c1ccccc1 [methyl cinnamate] (assay: log2 ratio of iodoacetamide-alkyne labeling of the cysteine site, DMSO over compound (competition); higher = stronger covalent engagement of the cysteine by the compound, active = 1 or more). Details: 500 µM; treatment time 1 h; system: HEK293T cell lysate.
Summary of the method: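 Three replicates, each with duplicate channels, were prepared from HEK293T lysate (2 mg/mL) treated with vehicle or electrophile at 500 µM for 1 h at ambient temperature. Iodoacetamide alkyne was then applied for 1 h, and samples were clicked to sCIP-TMT reagents, pooled, trypsin-digested overnight at 37 °C, enriched on streptavidin, acid-eluted and analysed on Orbitrap Eclipse LC-MS/MS with FAIMS, with FragPipe quantification. The log2 competition ratio per cysteine is the mean control-channel divided by the mean compound-channel reporter intensity. Cysteines quantified in only one replicate were left out.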

log2 ratio of iodoacetamide-alkyne labeling, inactive:
FKBP8 C227 (UniProt Q14318) 0.0246
ZMYM3 C1326 (UniProt Q14202) 0.164
TTLL12 C126 (UniProt Q14166) -0.118
UniProt Q14004_C701 0.12
MDC1 C26 (UniProt Q14676) 0.283
DDX39B C165 (UniProt Q13838) 0.147
NCAPD2 C772 (UniProt Q15021) 0.0133
ZNF638 C652 (UniProt Q14966) 0.192
CUL3 C636 (UniProt Q13618) 0.306
HNRNPD C226 (UniProt Q14103) -0.252
SQSTM1 C131 (UniProt Q13501) 0.0308
KPNB1 C689 (UniProt Q14974) 0.0823
SQSTM1 C128 (UniProt Q13501) 0.0308
ESPL1 C294 (UniProt Q14674) 0.243
SAFB2 C224 (UniProt Q14151) -0.0223
UniProt Q13885_C12 0.201
RRP1B C286 (UniProt Q14684) 0.256
DCTN2 C256 (UniProt Q13561) 0.262
GAMT C16 (UniProt Q14353) 0.123
DYNC1H1 C4121 (UniProt Q14204) 0.0885
MCM6 C242 (UniProt Q14566) 0.427
UniProt Q14562_C123 0.243
GAPVD1 C374 (UniProt Q14C86) -0.157
CTTN C246 (UniProt Q14247) 0.297
BOP1 C373 (UniProt Q14137) -0.149
KIF22 C575 (UniProt Q14807) -0.099
FHL1 C7 (UniProt Q13642) 0.0331
SQSTM1 C27 (UniProt Q13501) 0.151
UniProt Q13557_C273 -0.0104
FHL3 C150 (UniProt Q13643) 0.0596
HLTF C461 (UniProt Q14527) 0.272
FHL1 C188 (UniProt Q13642) 0.202
MAP7 C644 (UniProt Q14244) 0.273
KPNB1 C826 (UniProt Q14974) 0.588
UniProt Q13885_C127 0.428
MELK C339 (UniProt Q14680) 0.317
CUL3 C187 (UniProt Q13618) -0.0629

As a short view, some entries already given:
log2 ratio of iodoacetamide-alkyne labeling, inactive:
MDC1 C26 (UniProt Q14676) 0.283
DDX39B C165 (UniProt Q13838) 0.147

Source: the supplement of paper PMC11006884
